Measured values from PMC5062617, “Nop9 is a PUF-like protein that prevents premature cleavage to correctly process pre-18S rRNA”.

Biological target: T1, Nop9 (46-645) (Saccharomyces cerevisiae) (UniProt P47077)
T1 sequence (looked up): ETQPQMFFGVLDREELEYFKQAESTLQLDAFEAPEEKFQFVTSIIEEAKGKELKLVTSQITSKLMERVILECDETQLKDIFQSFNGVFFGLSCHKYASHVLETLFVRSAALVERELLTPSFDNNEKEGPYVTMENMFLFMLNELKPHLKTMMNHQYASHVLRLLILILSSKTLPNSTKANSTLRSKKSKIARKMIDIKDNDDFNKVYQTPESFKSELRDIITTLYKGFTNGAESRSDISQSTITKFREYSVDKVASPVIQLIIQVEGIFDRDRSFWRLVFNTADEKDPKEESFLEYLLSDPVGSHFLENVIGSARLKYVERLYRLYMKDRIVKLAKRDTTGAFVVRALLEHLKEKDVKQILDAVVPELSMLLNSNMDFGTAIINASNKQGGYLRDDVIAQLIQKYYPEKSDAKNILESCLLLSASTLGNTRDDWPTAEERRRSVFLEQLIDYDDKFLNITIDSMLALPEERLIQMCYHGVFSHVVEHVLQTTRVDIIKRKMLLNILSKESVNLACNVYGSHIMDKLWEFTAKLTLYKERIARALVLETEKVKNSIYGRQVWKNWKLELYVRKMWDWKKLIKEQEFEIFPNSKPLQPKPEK
Test: EMSA
Settings: EMSA: 10 mM HEPES, 150 mM NaCl, 0.01% Tween-20, 0.1 mg/ml BSA, 1 mM TCEP, 4 °C, 40 min, RNA <50 pM, recombinant protein, residues 46-645, label: 5' 32P

Sequence	Kd (letters put together from the description) [nM]	Kd [nM]
GGUUGAAAAUGGAUUUUUUUGUUUUAUAGGACAAUUAAAACCGUUUCAA [Subdomain A Δ5'1-16]	> 1000	
AAGAAAUUUAAUAAUU [Subdomain A 1-16]		> 1000

Protein sequences can lack the tags named with them.
